{"source": "paper PMC7819943", "about": "“Rice protein-binding microarrays: a tool to detect cis-acting elements near promoter regions in rice”", "note": "The other results are listed elsewhere or left out.", "data": [{"biological_target": "T1, OsSMF1 (Oryza sativa, UniProt Q6ZLB0 1-436)", "T1 sequence": "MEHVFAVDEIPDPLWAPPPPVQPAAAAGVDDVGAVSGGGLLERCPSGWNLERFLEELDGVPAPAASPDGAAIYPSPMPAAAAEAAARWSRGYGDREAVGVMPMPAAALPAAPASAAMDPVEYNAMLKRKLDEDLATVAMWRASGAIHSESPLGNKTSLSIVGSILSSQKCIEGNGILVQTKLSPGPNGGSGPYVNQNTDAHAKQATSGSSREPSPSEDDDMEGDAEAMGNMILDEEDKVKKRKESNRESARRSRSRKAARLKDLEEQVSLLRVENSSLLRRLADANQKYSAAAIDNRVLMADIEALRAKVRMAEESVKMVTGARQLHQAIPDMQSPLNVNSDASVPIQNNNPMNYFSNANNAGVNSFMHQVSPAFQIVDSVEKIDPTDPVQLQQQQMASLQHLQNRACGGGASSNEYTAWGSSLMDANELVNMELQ", "test": "protein-binding microarray (RPBM); PBS, 2% BSA, 51.3 ng/ul salmon testes DNA, 50 uM zinc acetate, 200 nM TF, 25 C, 1 h; high values mean tight binding", "details": "protein: recombinant; tags: N-terminal polyhistidine and DsRed monomer fusion (pET32a); chain copies: 2; label: CyDye5-dUTP incorporated in the synthesized complementary strand; 3' TTTTT single-stranded linker to array surface; dsDNA, one strand shown", "how_it_was_run": "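Binding signal is defined as the fluorescence intensity of each feature in arbitrary units, read on an Axon 4000B scanner. Transcription factors with N-terminal polyhistidine and DsRed fusions came from E. coli BL21-CodonPlus and were purified on Ni–NTA. They were incubated at 200 nM for 1 h at 25 °C on a custom Agilent array that had been made double-stranded with Cy5-dUTP, with 50 µM zinc acetate present, and the array was washed.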", "values": [{"sequence": "GGCACCAAATCACACAGAAAAGCTAGCCGACGTGGAGAGCCGGAGTCACCTAGTGCAG", "binding signal": "7350 fluorescence intensity (a.u.)"}, {"sequence": "TACTTAGCTAGCTAATCGCGTTGCTCTTTCTCGTACTATACGGAGTCACCTAGTGCAG", "binding signal": "20400 fluorescence intensity (a.u.)"}, {"sequence": "CAAAACACATCCATCATCCATTTATAAAATTACCACTCCCCGGAGTCACCTAGTGCAG", "binding signal": "3340 fluorescence intensity (a.u.)"}, {"sequence": "TGTTCTGTTCTTGTCCTTTGTGAGCACTAGTTTGAGCTGTCGGAGTCACCTAGTGCAG", "binding signal": "3240 fluorescence intensity (a.u.)"}, {"sequence": "GCATTGCATGACGAATGATGTGGAGACCAAAAGTAGTACTCGGAGTCACCTAGTGCAG", "binding signal": "4280 fluorescence intensity (a.u.)"}, {"sequence": "ACGCATGGATCCACGTGACGTCACGCCACGTCATCCACCACGGAGTCACCTAGTGCAG", "binding signal": "60800 fluorescence intensity (a.u.)"}, {"sequence": "GGTCCCACCTCTCATACACACATAATATATTGAAGTCCATCGGAGTCACCTAGTGCAG", "binding signal": "3580 fluorescence intensity (a.u.)"}, {"sequence": "TGGTTCTTATCCATTCCATCAGTTGACTGTCAATCTTTCACGGAGTCACCTAGTGCAG", "binding signal": "3270 fluorescence intensity (a.u.)"}, {"sequence": "GCGACTGCTTCCTGTTTGTCCGCAACAGCTCGCCTTCCTCCGGAGTCACCTAGTGCAG", "binding signal": "3230 fluorescence intensity (a.u.)"}, {"sequence": "GCTGAGCTGAGCTGATATGATCAACACAGTGCAGACTTGGCGGAGTCACCTAGTGCAG", "binding signal": "3710 fluorescence intensity (a.u.)"}, {"sequence": "CCTGCAATTCCACATCATGCTGTCATTTGGCATGTTCCATCGGAGTCACCTAGTGCAG", "binding signal": "8850 fluorescence intensity (a.u.)"}, {"sequence": "ACTGCGGGATAACTCATCTTACAGGAACACGTGGTTGAGACGGAGTCACCTAGTGCAG", "binding signal": "4280 fluorescence intensity (a.u.)"}, {"sequence": "CCAGAGAGGTGTTTTCATAGTCATCTCCGAATATTTGCCACGGAGTCACCTAGTGCAG", "binding signal": "4650 fluorescence intensity (a.u.)"}, {"sequence": "CATCGATGAGCTGCTTGACCGCCACCTCGCCAAGAAGTCCCGGAGTCACCTAGTGCAG", "binding signal": "4030 fluorescence intensity (a.u.)"}, {"sequence": "AAGCAAAGATTGTGAGCGCACTCTGACACAGCAGCATCTCCGGAGTCACCTAGTGCAG", "binding signal": "6180 fluorescence intensity (a.u.)"}, {"sequence": "CGAAGCGGTTCAGGAAGATGGAGCGGCACGTGGCTGCGACCGGAGTCACCTAGTGCAG", "binding signal": "5240 fluorescence intensity (a.u.)"}, {"sequence": "ACCAGCTACCACTAGTTGTGTAGTTACGTCCATAATAAAACGGAGTCACCTAGTGCAG", "binding signal": "31800 fluorescence intensity (a.u.)"}, {"sequence": "AGTTCCCAAGTCGCGCCTGTGATGATTGGTCCAAGTCATGCGGAGTCACCTAGTGCAG", "binding signal": "3220 fluorescence intensity (a.u.)"}, {"sequence": "CAGTAGGCAGCGGTAGCCGGCGATGACGCAACCATTAAGGCGGAGTCACCTAGTGCAG", "binding signal": "4080 fluorescence intensity (a.u.)"}, {"sequence": "GTTTAATATTTATAATTCGTGTCCCGATGTGACACGGCTTCGGAGTCACCTAGTGCAG", "binding signal": "4640 fluorescence intensity (a.u.)"}, {"sequence": "TAATAGTTTGCCATAAATGACTCAGAACTTAATTTAGGCCCGGAGTCACCTAGTGCAG", "binding signal": "6210 fluorescence intensity (a.u.)"}, {"sequence": "CACAACCAAAGCCCCAGTGACGTACGAGTACTCCTGATGTCGGAGTCACCTAGTGCAG", "binding signal": "4430 fluorescence intensity (a.u.)"}, {"sequence": "GCTAGACTCGACGTAAAGTTGAGGGACGTCATGTGAACTTCGGAGTCACCTAGTGCAG", "binding signal": "3750 fluorescence intensity (a.u.)"}, {"sequence": "CTCGCCCGGGATATATATATATGGCGGCGGGGCCGGCGGGCGGAGTCACCTAGTGCAG", "binding signal": "17200 fluorescence intensity (a.u.)"}, {"sequence": "GACCCACGCCTTCGGGTCCACATGTCATAGCCTATCCACCCGGAGTCACCTAGTGCAG", "binding signal": "3550 fluorescence intensity (a.u.)"}, {"sequence": "TAGTATGACAACTCAATCTCTTGTCTGTGACTAGCATATCCGGAGTCACCTAGTGCAG", "binding signal": "4310 fluorescence intensity (a.u.)"}, {"sequence": "GAACATATTTAAATATTGTAGCAGTTTATTTGTTAGCTAGCGGAGTCACCTAGTGCAG", "binding signal": "26400 fluorescence intensity (a.u.)"}, {"sequence": "AACTACAGGCGCTCCTAGAAACCGACAATTTTGACGTGTGCGGAGTCACCTAGTGCAG", "binding signal": "5060 fluorescence intensity (a.u.)"}, {"sequence": "GTCTTCACGTGTCCATGGTCTCAGCGTCAGCGACGAGACGCGGAGTCACCTAGTGCAG", "binding signal": "3960 fluorescence intensity (a.u.)"}, {"sequence": "TCATCTGCACGAGGGCGTGGTTGGTTCTTGCTTGTGTGAGCGGAGTCACCTAGTGCAG", "binding signal": "3680 fluorescence intensity (a.u.)"}, {"sequence": "CCCATTAACGAAAAGAGCCCACGGCCTCTTCTCTTCTTTCCGGAGTCACCTAGTGCAG", "binding signal": "3140 fluorescence intensity (a.u.)"}, {"sequence": "AGACAACACAAACAGTAAGTGTATCAGTGATTCAGAATGTCGGAGTCACCTAGTGCAG", "binding signal": "3950 fluorescence intensity (a.u.)"}, {"sequence": "GCCTACGACCCGCGCTCCGACCCTGACCCGCCCTGCCTCGCGGAGTCACCTAGTGCAG", "binding signal": "3170 fluorescence intensity (a.u.)"}, {"sequence": "GATAAATATAGGAATGTTTATAATACTAAATTAATTTAATCGGAGTCACCTAGTGCAG", "binding signal": "28300 fluorescence intensity (a.u.)"}, {"sequence": "CGTAATAATCTAACAACAGTAAGAAAATGACGTTGCTCTGCGGAGTCACCTAGTGCAG", "binding signal": "3660 fluorescence intensity (a.u.)"}, {"sequence": "GAGCCGTACTCTATCCCATAAAACAAAGTGAACAACACGTCGGAGTCACCTAGTGCAG", "binding signal": "3270 fluorescence intensity (a.u.)"}, {"sequence": "ACTAACCAACTGGTACACGTTCTCAAGGAAGCGCACAACTCGGAGTCACCTAGTGCAG", "binding signal": "4760 fluorescence intensity (a.u.)"}, {"sequence": "TTTTGGCTGACGTGGCGCTTACGTGGTTGGTTTGACTAGACGGAGTCACCTAGTGCAG", "binding signal": "32500 fluorescence intensity (a.u.)"}, {"sequence": "GGGTTGAGCAACATACGTGTTTGTTGGAGAATACCCGTCTCGGAGTCACCTAGTGCAG", "binding signal": "4410 fluorescence intensity (a.u.)"}, {"sequence": "CTTTTAGCATTGTCGGAGAACAGCATCAGCATCATGTCCACGGAGTCACCTAGTGCAG", "binding signal": "4160 fluorescence intensity (a.u.)"}, {"sequence": "ATACAATTTAACATTAAGTTATTATTCACGTGTCACGGGTCGGAGTCACCTAGTGCAG", "binding signal": "4610 fluorescence intensity (a.u.)"}, {"sequence": "TTAAATCTGCCCACTAGACATGCCCTTGAATAGGCCGCCACGGAGTCACCTAGTGCAG", "binding signal": "24900 fluorescence intensity (a.u.)"}, {"sequence": "CAGCCGGCATACGTGTGCGCGGATCTAGCCGTCCAAGCCGCGGAGTCACCTAGTGCAG", "binding signal": "4430 fluorescence intensity (a.u.)"}, {"sequence": "TCAACTCTCAAGCCAAGAATTGTCAGGGACACGTAGCCATCGGAGTCACCTAGTGCAG", "binding signal": "8720 fluorescence intensity (a.u.)"}, {"sequence": "TCTTATATTTGGGCCGGATCGTGCATGCGTGTCAGGGTAACGGAGTCACCTAGTGCAG", "binding signal": "6870 fluorescence intensity (a.u.)"}, {"sequence": "CATCCCACGTGTACACGCGCGGCTCGTCACTCCCCGTGGGCGGAGTCACCTAGTGCAG", "binding signal": "9760 fluorescence intensity (a.u.)"}, {"sequence": "TTTTCAACCTTATATTGTCATTGTCCGTCAACTTGGCTTGCGGAGTCACCTAGTGCAG", "binding signal": "3170 fluorescence intensity (a.u.)"}, {"sequence": "GTCTGCGGTGTGACCAACCCAAAACATGGCTTATGTGACTCGGAGTCACCTAGTGCAG", "binding signal": "16300 fluorescence intensity (a.u.)"}, {"sequence": "GCCAGCGTGACGAGGCAGAAGCCCCATCCTTCGCGCGTGCCGGAGTCACCTAGTGCAG", "binding signal": "8530 fluorescence intensity (a.u.)"}, {"sequence": "CTTTTCCCAAGTCGCGACAGATGGCTTGCGTCTGCGGGTTCGGAGTCACCTAGTGCAG", "binding signal": "4560 fluorescence intensity (a.u.)"}, {"sequence": "GAAAATTTGAGCAAAATTTAGTTGAATTTGAACAAATATTCGGAGTCACCTAGTGCAG", "binding signal": "6670 fluorescence intensity (a.u.)"}, {"sequence": "TCAGTTGCTGCAAAGATTGGGTCAGGCAGGCTTGAGTGTGCGGAGTCACCTAGTGCAG", "binding signal": "3300 fluorescence intensity (a.u.)"}, {"sequence": "AAGAGCCAAGAGCGCGCCCCACGCACGCGAGCCGTGCGGCCGGAGTCACCTAGTGCAG", "binding signal": "23100 fluorescence intensity (a.u.)"}, {"sequence": "CAAGCCGGGCGGGAGCCGTGGCGGCGGCCGGGCGGGCGGGCGGAGTCACCTAGTGCAG", "binding signal": "3340 fluorescence intensity (a.u.)"}]}]}
